doi:10.1101/2024.05.28.596271
No constants are given. Whether binding was seen depends on the method and setting. For some of these results: Binding seen in cells or lysates may run through a third protein. Some binding calls cover weakened binding; strength is not graded here.

Sequences of proteins named here, by UniProt entry; tags and fusion partners are left off. A change or cut given only in a name is not applied to a line headed by its entry. A line that says so, or that is headed by a name, gives the form on record, which may keep a tag or linker. Residues count along the entry.
UniProt P05106, residues 742-788: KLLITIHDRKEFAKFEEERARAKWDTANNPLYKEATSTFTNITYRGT
UniProt P05107: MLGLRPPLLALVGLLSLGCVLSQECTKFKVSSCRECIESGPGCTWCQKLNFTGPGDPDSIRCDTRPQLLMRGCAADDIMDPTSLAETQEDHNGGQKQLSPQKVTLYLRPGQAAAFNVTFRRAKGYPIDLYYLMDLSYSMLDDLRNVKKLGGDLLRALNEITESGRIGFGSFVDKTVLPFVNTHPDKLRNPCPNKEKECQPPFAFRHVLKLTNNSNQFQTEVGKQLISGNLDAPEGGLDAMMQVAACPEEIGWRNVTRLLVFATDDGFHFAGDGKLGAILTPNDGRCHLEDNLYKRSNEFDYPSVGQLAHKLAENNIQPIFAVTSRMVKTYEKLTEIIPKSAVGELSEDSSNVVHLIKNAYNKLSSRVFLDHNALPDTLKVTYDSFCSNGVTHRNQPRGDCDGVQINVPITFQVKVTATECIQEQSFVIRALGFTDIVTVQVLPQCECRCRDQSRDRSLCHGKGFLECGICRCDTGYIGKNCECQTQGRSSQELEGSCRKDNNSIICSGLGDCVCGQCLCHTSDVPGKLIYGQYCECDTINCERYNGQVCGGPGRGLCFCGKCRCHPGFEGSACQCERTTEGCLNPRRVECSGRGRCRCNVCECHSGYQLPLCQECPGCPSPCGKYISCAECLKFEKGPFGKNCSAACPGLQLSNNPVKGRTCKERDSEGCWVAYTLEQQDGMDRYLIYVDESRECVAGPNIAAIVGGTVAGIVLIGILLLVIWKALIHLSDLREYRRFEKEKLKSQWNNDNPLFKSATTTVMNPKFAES
UniProt Q96AC1: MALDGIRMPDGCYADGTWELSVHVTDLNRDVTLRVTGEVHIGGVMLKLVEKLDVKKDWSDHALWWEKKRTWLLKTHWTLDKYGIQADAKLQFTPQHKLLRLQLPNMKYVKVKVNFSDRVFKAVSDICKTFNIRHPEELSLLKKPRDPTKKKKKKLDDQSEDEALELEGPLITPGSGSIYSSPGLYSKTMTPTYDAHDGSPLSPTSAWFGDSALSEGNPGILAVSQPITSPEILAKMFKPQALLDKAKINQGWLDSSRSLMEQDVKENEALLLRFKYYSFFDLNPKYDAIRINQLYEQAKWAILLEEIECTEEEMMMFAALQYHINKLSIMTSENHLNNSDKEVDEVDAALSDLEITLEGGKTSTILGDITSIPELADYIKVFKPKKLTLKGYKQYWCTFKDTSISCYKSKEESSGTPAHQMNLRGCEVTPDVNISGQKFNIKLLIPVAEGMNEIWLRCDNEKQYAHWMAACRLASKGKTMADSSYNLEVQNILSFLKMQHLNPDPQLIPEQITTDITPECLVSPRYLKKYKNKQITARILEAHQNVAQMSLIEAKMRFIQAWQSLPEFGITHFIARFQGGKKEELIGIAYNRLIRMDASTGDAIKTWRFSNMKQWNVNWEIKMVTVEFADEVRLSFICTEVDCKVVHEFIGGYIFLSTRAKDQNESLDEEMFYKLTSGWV
talin head domain (1-430, F1 loop deleted) K306Q of β2-THD(K306Q) (P26039, form named): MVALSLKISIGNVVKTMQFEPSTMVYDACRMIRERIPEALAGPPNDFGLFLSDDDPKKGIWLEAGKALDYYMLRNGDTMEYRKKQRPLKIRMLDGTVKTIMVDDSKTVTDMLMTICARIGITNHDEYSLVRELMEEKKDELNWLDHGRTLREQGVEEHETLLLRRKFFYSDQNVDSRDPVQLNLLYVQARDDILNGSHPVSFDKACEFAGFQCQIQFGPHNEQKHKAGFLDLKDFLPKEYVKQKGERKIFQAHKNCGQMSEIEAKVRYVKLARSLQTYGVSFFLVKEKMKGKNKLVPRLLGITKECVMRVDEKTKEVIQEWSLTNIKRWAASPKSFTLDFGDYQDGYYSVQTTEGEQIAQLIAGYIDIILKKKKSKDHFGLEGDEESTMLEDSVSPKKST
talin head domain (1-430, F1 loop deleted) K306Q/E269A/Y270A of β2-THD(QAA) (P26039, form named): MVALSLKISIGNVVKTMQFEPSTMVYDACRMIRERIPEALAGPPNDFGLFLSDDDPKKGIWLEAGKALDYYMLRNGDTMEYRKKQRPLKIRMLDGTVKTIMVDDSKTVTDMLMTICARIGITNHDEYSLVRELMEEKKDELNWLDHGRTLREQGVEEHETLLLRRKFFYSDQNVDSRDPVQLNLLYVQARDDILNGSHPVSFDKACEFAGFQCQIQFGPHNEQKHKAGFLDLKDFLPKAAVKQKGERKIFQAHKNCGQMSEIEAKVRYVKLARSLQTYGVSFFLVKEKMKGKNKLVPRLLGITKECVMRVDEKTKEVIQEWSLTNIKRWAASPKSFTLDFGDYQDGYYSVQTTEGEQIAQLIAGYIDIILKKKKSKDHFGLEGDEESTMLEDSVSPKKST
talin head protein THD405d (residues 1-405, lacking F1-loop) (P26039, form named): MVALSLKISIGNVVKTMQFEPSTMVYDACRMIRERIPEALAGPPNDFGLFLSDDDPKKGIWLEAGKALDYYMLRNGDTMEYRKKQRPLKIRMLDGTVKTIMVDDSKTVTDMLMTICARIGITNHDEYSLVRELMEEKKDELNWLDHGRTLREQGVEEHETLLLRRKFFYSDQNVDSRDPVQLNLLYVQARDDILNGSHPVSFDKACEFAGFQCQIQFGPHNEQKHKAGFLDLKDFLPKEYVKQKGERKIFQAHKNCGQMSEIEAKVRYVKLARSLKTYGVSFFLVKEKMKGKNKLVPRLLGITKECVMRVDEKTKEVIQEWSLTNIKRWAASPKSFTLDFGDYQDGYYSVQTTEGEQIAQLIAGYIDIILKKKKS

How the values were obtained:
[1] = target: GST-β3 (residue 742-788) (human) (UniProt P05106); assay: pull-down
[2] = target: truncated cytoplasmic tail of human integrin β2 (residues 748-757), talin-binding NPxY/F region (human) (UniProt P05107); assay: crystal structure

Substance | binding [1] | binding [2]
kindlin-2 (from UniProt Q96AC1 1-680) | binds | –
talin head domain (1-430, F1 loop deleted) K306Q of β2-THD(K306Q) (from UniProt P26039 1-430) (domain or fragment) | – | binds
talin head domain (1-430, F1 loop deleted) K306Q/E269A/Y270A of β2-THD(QAA) (from UniProt P26039 1-430) (domain or fragment) | – | binds
talin head protein THD405d (residues 1-405, lacking F1-loop) (from UniProt P26039 1-405) (domain or fragment) | binds | –
